These are yes or no findings as the source states them, for the method shown. Some binding calls cover weakened binding; strength is not graded here. Tags and fused reporters may be left off the sequences shown.
Molecular target: T1, recombinant B7-H4 protein (extracellular domain, IgC+IgV, fused to 6xHIS Tag) (human) (UniProt Q7Z7D3)
T1 sequence (chain, biotinylated in the capture ELISA (site not stated)): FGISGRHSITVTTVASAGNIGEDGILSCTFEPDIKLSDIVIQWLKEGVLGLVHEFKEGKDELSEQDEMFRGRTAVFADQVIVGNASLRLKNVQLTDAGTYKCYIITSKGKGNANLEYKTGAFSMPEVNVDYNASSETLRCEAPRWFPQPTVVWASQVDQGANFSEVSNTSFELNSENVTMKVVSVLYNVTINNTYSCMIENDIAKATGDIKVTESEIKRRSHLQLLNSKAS
Experiment: capture ELISA, immobilized scFv, biotinylated rB7-H4, SA-HRP

binding: binds
B1: anti-B7H4 scFv clone 3#68 (scFv)
scFv: QPGLTQPPSASGTPGQRVTISCSGSSSNIGSNYVYWYQQFPGTAPKLLIYRNNQRPSGVPDRFSGSKSGTSASLAISGLRSEDEADYYCAAWDDSLSVWVFGGGTKVTVLGGSSRSSSSGGSGSGGGGQVTLKESGAEVKNPGSSVKVSCKASGGTFSSYAISWLRQAPGQGLEWMGWINPNSGGSDYAQRFQGRVTMTRDTSINTVYMELSRLRSDDTAVYYCARVEKRGYYYGMDVWGQGTMVTVSSFEGSEQ

Source: patent US20140294861A1 (University of Pennsylvania, published 2014)
